At least one structure is not confirmed: it was looked up by name or label, or the drawing left a doubt.
How the values were obtained:
[1] = tested on: SARS-CoV-2 pseudotyped Lentivirus; type: cell-based; settings: trimethylamine-N-oxide 300 μM, DHA or EPA 25-125 μM, 48 hours, compared with comparison group 1
ACE2 and TMPRSS2 = experiment: Western blot of ACE2 and TMPRSS2 in TMAO-treated hEPCs; type: cell-based, human; settings: trimethylamine-N-oxide 300 μM, DHA or EPA 25-125 μM, 48 hours

Structure (SMILES) | entry of SARS-CoV-2 plasmid into the human endothelial progenitor cells [1] | expressions of ACE2 and TMPRSS2 (ACE2 and TMPRSS2)
CC/C=C\C/C=C\C/C=C\C/C=C\C/C=C\C/C=C\CCC(=O)O [DHA, docosahexaenoic acid] | significantly reduce | effectively reduce
CC/C=C\C/C=C\C/C=C\C/C=C\C/C=C\CCCC(=O)O [EPA, eicosapentaenoic acid] | significantly reduce | effectively reduce

Reference: US20240148682A1, “METHOD FOR REGULATING DOWNSTREAM SIGNALING PATHWAY MEDIATED BY ACTIVATION OF TRIMETHYLAMINE-N-OXIDE” (China Medical University, priority 2022, published 2024)
